Some of the results follow.
compound: CC1=C(C=C(C=C1)NC(=O)C2=CC(=CC=C2)C(C)(C)C#N)NC3=CC4=C(C=C3)N=CN(C4=O)C; assay: log2 fold change, soluble protein after heating vs DMSO (PISA); higher = thermal stabilisation; K562 lysate, 10 uM; active = over 0.2 and 3.5 SD of the protein, either way, in both replicates (recomputed)
In short: (§1)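 Thermal stability, expressed as log-two fold change relative to solvent controls, is given from duplicates. Crude K562 extract in PBS pH 7.4 with 1 mM MgCl2, at 1 mg/mL protein, was treated with 10 μM compound for 30 min and heated in aliquots for 3 min across 48°C-58°C. After pooling, adjustment to 0.5% NP-40 at 4°C and centrifugation at 21,000xg for 90 min, supernatant protein was measured by TMTpro 16plex LC-MS/MS with channel sums equalised.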

Sequences of proteins named here, by UniProt entry; tags and fusion partners are left off. A change or cut given only in a name is not applied to a line headed by its entry.
UniProt Q6Y288: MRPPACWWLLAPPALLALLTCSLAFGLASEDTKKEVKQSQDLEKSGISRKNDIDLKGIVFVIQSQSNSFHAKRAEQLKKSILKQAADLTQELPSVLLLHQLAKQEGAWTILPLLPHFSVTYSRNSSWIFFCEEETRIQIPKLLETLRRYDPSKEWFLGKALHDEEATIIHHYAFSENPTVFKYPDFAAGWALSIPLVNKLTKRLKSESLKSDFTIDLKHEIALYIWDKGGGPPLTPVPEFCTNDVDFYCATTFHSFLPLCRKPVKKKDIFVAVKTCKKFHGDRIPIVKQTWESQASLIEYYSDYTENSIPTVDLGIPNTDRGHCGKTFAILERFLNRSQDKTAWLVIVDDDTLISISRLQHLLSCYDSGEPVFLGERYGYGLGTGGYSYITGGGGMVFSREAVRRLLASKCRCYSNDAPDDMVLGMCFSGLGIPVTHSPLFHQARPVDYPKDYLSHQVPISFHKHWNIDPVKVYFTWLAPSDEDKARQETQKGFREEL
UniProt P30049: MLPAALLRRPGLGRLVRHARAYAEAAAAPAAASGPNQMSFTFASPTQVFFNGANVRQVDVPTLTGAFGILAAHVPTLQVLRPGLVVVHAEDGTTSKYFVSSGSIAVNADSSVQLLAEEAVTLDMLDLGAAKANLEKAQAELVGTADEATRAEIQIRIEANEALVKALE
UniProt Q9UBL3, whole entry, looked up: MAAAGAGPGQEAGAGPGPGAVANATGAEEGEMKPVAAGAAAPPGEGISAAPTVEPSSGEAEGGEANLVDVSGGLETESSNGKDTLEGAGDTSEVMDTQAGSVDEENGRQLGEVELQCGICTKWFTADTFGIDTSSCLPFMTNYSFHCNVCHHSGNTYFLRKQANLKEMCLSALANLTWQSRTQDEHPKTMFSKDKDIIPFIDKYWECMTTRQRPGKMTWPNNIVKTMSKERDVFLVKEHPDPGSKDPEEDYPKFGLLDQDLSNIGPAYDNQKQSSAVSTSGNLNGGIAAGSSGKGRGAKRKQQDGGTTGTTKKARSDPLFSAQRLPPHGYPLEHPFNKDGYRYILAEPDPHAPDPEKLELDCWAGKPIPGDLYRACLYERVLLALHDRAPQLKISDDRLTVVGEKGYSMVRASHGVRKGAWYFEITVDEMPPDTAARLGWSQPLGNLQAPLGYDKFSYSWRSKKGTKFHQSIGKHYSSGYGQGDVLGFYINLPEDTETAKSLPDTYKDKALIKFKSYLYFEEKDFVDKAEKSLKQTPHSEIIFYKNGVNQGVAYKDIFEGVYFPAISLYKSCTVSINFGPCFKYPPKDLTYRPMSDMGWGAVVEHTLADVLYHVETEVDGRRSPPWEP
UniProt Q7Z3C6: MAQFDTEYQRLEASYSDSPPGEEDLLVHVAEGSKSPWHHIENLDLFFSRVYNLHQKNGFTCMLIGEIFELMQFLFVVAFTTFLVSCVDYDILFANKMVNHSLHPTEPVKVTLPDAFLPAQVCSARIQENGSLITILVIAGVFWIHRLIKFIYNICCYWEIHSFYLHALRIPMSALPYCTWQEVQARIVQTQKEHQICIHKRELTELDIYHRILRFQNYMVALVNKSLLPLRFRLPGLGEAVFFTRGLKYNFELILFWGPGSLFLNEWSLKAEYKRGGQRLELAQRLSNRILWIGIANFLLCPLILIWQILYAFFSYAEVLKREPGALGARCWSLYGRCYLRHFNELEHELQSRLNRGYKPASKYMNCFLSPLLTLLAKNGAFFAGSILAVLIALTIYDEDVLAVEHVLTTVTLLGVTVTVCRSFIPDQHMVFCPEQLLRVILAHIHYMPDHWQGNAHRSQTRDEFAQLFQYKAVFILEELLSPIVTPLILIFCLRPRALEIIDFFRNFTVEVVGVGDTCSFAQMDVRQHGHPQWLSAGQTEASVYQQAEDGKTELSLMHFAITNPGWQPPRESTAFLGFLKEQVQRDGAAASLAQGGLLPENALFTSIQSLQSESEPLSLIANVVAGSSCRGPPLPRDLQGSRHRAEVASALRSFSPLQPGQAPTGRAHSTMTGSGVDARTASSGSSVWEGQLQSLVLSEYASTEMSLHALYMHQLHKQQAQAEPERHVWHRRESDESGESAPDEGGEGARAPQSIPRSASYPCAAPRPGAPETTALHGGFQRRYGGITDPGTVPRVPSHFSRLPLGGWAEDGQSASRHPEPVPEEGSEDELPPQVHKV
UniProt Q96A05, whole entry, looked up: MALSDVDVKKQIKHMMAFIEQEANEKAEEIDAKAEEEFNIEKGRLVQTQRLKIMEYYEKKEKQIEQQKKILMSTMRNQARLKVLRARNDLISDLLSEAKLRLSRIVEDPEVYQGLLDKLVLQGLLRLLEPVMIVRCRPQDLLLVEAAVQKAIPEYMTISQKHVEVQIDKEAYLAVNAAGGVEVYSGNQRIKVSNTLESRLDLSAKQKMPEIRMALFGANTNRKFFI
UniProt P61769, whole entry, looked up: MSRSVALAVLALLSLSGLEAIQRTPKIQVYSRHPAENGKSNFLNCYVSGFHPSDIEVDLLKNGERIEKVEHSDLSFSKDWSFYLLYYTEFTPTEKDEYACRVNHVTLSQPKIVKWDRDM
UniProt Q9NQ11: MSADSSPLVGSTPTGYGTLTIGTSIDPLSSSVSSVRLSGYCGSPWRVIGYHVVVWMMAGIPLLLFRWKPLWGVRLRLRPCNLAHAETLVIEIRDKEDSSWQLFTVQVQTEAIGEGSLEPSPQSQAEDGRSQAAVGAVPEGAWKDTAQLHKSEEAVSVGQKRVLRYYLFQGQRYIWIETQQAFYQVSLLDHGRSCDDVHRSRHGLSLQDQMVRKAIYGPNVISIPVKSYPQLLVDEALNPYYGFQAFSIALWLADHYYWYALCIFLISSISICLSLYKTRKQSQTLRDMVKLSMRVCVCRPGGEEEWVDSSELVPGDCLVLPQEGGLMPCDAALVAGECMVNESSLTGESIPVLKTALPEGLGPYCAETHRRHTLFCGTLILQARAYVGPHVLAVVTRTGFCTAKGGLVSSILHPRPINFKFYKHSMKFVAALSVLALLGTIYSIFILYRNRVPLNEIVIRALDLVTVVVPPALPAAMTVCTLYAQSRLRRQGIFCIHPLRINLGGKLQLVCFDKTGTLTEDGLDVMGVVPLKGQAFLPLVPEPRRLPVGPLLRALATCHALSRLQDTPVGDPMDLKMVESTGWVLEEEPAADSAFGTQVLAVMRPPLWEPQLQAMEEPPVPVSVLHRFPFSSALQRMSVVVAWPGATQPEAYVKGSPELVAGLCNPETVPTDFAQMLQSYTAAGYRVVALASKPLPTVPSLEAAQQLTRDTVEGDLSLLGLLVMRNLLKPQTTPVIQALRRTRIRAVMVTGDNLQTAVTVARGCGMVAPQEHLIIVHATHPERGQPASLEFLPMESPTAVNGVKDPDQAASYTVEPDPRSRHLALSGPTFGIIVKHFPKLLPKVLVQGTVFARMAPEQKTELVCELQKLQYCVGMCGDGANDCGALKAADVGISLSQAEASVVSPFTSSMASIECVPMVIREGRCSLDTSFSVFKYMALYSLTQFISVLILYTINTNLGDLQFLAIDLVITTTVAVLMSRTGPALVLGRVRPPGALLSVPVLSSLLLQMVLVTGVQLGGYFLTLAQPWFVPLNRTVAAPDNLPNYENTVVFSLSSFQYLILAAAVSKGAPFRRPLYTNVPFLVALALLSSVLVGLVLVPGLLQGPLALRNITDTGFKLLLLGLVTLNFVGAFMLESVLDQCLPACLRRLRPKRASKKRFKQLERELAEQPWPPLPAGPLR
UniProt Q8WXE1: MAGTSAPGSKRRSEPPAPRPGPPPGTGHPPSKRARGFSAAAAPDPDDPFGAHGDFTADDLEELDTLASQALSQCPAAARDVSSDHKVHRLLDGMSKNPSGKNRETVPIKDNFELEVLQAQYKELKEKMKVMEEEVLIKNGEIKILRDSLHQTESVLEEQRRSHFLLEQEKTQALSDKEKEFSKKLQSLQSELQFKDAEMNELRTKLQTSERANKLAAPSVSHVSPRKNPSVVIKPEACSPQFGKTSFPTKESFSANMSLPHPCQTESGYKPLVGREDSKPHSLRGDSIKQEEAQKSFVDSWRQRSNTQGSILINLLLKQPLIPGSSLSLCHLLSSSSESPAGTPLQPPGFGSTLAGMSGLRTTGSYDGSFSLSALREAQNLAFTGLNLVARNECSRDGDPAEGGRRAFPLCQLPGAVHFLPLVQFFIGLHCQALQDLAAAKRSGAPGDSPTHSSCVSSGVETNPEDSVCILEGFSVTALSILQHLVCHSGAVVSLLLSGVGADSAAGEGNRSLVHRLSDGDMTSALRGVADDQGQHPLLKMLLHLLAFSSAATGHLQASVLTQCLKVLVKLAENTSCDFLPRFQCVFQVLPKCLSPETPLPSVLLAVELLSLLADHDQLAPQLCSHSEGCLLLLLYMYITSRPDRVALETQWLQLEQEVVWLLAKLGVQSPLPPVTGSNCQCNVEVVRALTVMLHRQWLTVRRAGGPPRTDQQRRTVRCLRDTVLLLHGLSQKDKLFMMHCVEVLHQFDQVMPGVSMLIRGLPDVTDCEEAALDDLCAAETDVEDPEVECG
UniProt Q16864, whole entry, looked up: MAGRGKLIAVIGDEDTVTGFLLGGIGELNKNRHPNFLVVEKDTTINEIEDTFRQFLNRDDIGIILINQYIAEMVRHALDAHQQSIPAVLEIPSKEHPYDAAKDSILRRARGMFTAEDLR
UniProt O95260: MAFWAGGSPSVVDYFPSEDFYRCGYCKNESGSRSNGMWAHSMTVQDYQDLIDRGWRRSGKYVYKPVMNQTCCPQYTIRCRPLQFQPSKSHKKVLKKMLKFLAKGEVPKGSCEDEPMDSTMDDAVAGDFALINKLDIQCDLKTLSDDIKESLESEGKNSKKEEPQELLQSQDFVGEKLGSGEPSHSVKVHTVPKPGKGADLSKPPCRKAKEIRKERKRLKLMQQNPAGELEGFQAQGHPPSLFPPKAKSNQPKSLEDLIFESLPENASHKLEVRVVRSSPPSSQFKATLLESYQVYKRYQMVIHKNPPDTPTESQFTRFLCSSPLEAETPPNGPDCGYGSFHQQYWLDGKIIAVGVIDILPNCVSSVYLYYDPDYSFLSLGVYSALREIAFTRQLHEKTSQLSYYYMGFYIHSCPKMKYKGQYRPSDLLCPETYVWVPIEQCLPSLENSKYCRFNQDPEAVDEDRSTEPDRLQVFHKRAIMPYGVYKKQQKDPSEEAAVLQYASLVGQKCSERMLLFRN
UniProt Q9UBB4: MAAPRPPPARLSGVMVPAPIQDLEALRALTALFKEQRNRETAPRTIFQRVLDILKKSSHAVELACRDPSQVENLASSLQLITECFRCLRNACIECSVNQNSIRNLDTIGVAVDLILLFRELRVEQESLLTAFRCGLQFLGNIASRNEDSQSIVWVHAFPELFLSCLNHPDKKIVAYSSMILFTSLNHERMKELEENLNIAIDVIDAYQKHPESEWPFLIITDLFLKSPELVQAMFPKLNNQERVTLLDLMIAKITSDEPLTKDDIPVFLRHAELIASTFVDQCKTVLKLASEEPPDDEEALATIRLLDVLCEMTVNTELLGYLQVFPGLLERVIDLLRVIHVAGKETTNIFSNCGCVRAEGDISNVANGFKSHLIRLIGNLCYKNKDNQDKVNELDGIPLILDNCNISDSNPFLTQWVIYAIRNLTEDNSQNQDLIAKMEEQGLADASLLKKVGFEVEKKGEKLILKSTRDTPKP
UniProt Q13733, whole entry, looked up: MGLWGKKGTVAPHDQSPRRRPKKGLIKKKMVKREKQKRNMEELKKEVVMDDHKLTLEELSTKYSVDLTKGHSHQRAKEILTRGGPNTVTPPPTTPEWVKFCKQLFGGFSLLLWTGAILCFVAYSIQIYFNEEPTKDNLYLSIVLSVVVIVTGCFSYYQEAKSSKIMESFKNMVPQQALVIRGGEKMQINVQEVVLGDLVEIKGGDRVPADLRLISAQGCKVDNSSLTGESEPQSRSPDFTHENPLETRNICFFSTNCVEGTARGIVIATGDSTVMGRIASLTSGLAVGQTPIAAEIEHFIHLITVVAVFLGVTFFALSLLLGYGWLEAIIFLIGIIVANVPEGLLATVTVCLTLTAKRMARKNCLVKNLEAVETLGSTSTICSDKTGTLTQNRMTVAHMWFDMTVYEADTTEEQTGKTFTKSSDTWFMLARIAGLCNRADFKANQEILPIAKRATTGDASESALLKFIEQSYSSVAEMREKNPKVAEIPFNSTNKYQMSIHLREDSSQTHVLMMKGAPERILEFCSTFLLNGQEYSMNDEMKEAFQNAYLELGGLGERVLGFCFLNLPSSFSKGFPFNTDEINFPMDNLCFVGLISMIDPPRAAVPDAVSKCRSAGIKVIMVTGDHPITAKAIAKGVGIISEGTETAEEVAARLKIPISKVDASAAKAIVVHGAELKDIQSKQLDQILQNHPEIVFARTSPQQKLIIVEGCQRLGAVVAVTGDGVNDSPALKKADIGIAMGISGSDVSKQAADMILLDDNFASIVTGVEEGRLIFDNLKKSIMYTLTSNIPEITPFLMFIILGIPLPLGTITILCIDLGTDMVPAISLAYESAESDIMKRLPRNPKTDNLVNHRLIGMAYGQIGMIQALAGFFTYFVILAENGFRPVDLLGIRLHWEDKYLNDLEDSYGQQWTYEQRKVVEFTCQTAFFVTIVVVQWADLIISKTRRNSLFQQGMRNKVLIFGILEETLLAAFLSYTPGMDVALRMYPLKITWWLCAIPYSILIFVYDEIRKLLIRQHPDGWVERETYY

Target	log2 fold change
B3GLCT (UniProt Q6Y288)	inactive: 0.02
ATP13A1 (UniProt Q9HD20)	inactive: -0.108
ATP5F1C (UniProt P36542)	inactive: 0.014
ATP2B4 (UniProt P23634)	inactive: 0.089
ATP5F1D (UniProt P30049)	inactive: 0.082
ATP23 (UniProt Q9Y6H3)	inactive: -0.106
ATXN3 isoform 1 (UniProt P54252)	inactive: 0.031
AZGP1 (UniProt P25311)	inactive: 0.101
ASH2L (UniProt Q9UBL3)	inactive: -0.002
ATG9A (UniProt Q7Z3C6)	inactive: 0.008
ATP6V1E2 (UniProt Q96A05)	inactive: 0.004
ATP1A1 (UniProt P05023)	inactive: 0.007
ATG101 (UniProt Q9BSB4)	inactive: -0.02
B2M (UniProt P61769)	inactive: 0.061
ASB6 (UniProt Q9NWX5)	inactive: 0.055
ATP11A (UniProt P98196)	inactive: -0.006
ATP6V1E1 (UniProt P36543)	inactive: -0.005

Target	log2 fold change
ATP5PF isoform 2 (UniProt P18859)	inactive: 0.026
ATP13A2 (UniProt Q9NQ11)	inactive: -0.044
ATG7 (UniProt O95352)	inactive: -0.001
ATRIP (UniProt Q8WXE1)	inactive: -0.008
AVL9 (UniProt Q8NBF6)	inactive: 0.005
ATP6V1F isoform 2 (UniProt Q16864)	inactive: 0.027
ASL (UniProt P04424)	inactive: 0.017
ATE1 isoform 2 (UniProt O95260)	inactive: -0.04
ATP1A3 isoform 3 (UniProt P13637)	inactive: 0.041
ATXN10 (UniProt Q9UBB4)	inactive: 0.011
ATP6V1B2 (UniProt P21281)	inactive: -0.013
ATG2A isoform 3 (UniProt Q2TAZ0)	inactive: -0.017
ASF1B (UniProt Q9NVP2)	inactive: 0.006
ATG4C (UniProt Q96DT6)	inactive: 0.012
ATP1A4 (UniProt Q13733)	inactive: 0.021
ASNA1 (UniProt O43681)	inactive: 0.01
ATP5PO (UniProt P48047)	inactive: -0.003

compound: CC1=C(C=C(C=C1)NC(=O)C2=CC(=CC=C2)N(C)C)NC(=O)C3=CC=C(C=C3)O; assay: as above
In short: as §1

Target	log2 fold change
B3GLCT (UniProt Q6Y288)	inactive: 0.089
ATP13A1 (UniProt Q9HD20)	inactive: 0.062
ATP5F1C (UniProt P36542)	inactive: -0.022
ATP2B4 (UniProt P23634)	inactive: 0.051
ATP5F1D (UniProt P30049)	inactive: -0.012
ATP23 (UniProt Q9Y6H3)	inactive: -0.022
ATXN3 isoform 1 (UniProt P54252)	inactive: -0.012
AZGP1 (UniProt P25311)	inactive: 0.042
ASH2L (UniProt Q9UBL3)	inactive: 0.012
ATG9A (UniProt Q7Z3C6)	inactive: 0.046
ATP6V1E2 (UniProt Q96A05)	inactive: -0.054
ATP1A1 (UniProt P05023)	inactive: -0.019
ATG101 (UniProt Q9BSB4)	inactive: 0.028
B2M (UniProt P61769)	inactive: -0.022
ASB6 (UniProt Q9NWX5)	inactive: -0.052
ATP11A (UniProt P98196)	inactive: -0.074
ATP6V1E1 (UniProt P36543)	inactive: 0

Target	log2 fold change
ATP5PF isoform 2 (UniProt P18859)	inactive: 0.05
ATP13A2 (UniProt Q9NQ11)	inactive: -0.016
ATG7 (UniProt O95352)	inactive: 0.011
ATRIP (UniProt Q8WXE1)	inactive: -0.008
AVL9 (UniProt Q8NBF6)	inactive: 0.002
ATP6V1F isoform 2 (UniProt Q16864)	inactive: 0.036
ASL (UniProt P04424)	inactive: -0.008
ATE1 isoform 2 (UniProt O95260)	inactive: -0.004
ATP1A3 isoform 3 (UniProt P13637)	inactive: -0.001
ATXN10 (UniProt Q9UBB4)	inactive: 0.009
ATP6V1B2 (UniProt P21281)	inactive: 0.014
ATG2A isoform 3 (UniProt Q2TAZ0)	inactive: 0.058
ASF1B (UniProt Q9NVP2)	inactive: 0.024
ATG4C (UniProt Q96DT6)	inactive: -0.02
ATP1A4 (UniProt Q13733)	inactive: -0.025
ASNA1 (UniProt O43681)	inactive: -0.033
ATP5PO (UniProt P48047)	inactive: -0.004
